Measured values as given in PubChem BioAssay AID651664 (NMMLSC, 2012).
Screen size: about 1,800 compounds; fewer than 10 were called active.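 Rule for the calls: active = inhibition of granule release above a set limit; inactive = the rest.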 Some of the results follow.

Test: inhibitors of lytic granule exocytosis, flow cytometry, TALL-104 cells, validation set (AID 651664)
Settings: TALL-104 LAMP-1 externalization, at 15.2 µM, active compounds read high, stimulated with thapsigargin and PMA

inhibition, inactive:
Cc1nn(C(=O)c2ccco2)c(C)c1Br -2.6%
O=C(O)CSCc1cn2cc(Cl)ccc2n1 0.9%
O=C(COc1ccccc1O)N1CCN(C(=O)c2ccco2)CC1 0.9%
O=C(Nc1ccccc1)c1ccc(CSc2ncccn2)cc1 -1.2%
COc1ccc(CN2CCOCC2)cc1OC -1.3%
COc1ccccc1NC(=O)c1cc2ccccc2o/c1=N\O -3.5%
COC(=O)Cc1cc(=O)n2[nH]c(C)c(-c3ccccc3)c2n1 2.4%
CCOc1nc(N2CCCCC2)nc(-n2cc(-c3ccccc3)nn2)n1 -1.2%
Cc1nc2cc(S(=O)(=O)N3CCC(C(=O)O)CC3)ccc2n1C1CCCC1 -3.7%
Cn1c(=O)[nH]c(=O)c2c1nc(N1CCNCC1)n2CCOc1ccccc1 -0.5%
Cc1nnc(NC(=O)C2c3ccccc3Oc3ccccc32)s1 5.8%
CCOC(=O)/C(C#N)=C/c1cc(C)n(-c2ccccc2)c1C -2.9%
Cn1c(-c2ccc(-c3ccccc3)cc2)c[nH]c1=S -3.2%
NC(=S)N/N=C/c1ccccc1OCc1cccc(Cl)c1 0%
c1nnc(NC2=NCCC2)s1 -1.3%
O=C(c1ccc(=O)oc1)N1CCCc2ccccc21 -0.6%
CN(C(=O)CSc1nnc(Cc2ccccc2F)n1N)C1CCS(=O)(=O)C1 (centres undefined) -0.9%
O=C(/C=C/Nc1ccc(F)cc1)c1ccco1 -3.8%
Cc1csc2nc(CNC(=O)c3cccc(C(F)(F)F)c3)cn12 17.8%
CC(C)(C)C(=O)c1cnc(Nc2ccccc2)s1 0.7%
CCc1nnc(SCC(=O)Nc2ccc(C(C)=O)cc2)nc1CC -1%
O=C(O)c1cccc(CN2C(=O)CSC2=O)c1 -3.2%
O=C(CCN1CCc2ccccc2C(O)(c2ccccc2)C1)c1ccc2c(c1)OCCO2 (centres undefined) 2.1%
CC1(C)Cc2c(C#N)c(SCc3ccccc3)nc(N3CCOCC3)c2CO1 1.1%
c1ccc(Cn2c(SCc3cn4cccnc4n3)nnc2-c2ccco2)cc1 1%
O=C(CN1C(=O)NC2(CCCc3ccccc32)C1=O)N1CCc2ccccc2C1 (centres undefined) -2.2%
COC(=O)c1ccc(C(=O)OC)c(NC(=O)CSc2nnc(-c3ccccc3Cl)o2)c1 7%
Clc1ccccc1Cn1nnc2c(N3CCOCC3)nc(C3CC3)nc21 -4%
CC(C)c1nccn1S(=O)(=O)c1cc(Cl)ccc1Cl -3.5%

Random excerpt: two records from the list.
inhibition, inactive:
CC(C)(C)C(=O)c1cnc(Nc2ccccc2)s1 0.7%
O=C(Nc1ccccc1)c1ccc(CSc2ncccn2)cc1 -1.2%
